Here are results for 2 substances from publication PMC9249237.

Amino acid sequences for entries named in this document (tags omitted).
UniProt O42145: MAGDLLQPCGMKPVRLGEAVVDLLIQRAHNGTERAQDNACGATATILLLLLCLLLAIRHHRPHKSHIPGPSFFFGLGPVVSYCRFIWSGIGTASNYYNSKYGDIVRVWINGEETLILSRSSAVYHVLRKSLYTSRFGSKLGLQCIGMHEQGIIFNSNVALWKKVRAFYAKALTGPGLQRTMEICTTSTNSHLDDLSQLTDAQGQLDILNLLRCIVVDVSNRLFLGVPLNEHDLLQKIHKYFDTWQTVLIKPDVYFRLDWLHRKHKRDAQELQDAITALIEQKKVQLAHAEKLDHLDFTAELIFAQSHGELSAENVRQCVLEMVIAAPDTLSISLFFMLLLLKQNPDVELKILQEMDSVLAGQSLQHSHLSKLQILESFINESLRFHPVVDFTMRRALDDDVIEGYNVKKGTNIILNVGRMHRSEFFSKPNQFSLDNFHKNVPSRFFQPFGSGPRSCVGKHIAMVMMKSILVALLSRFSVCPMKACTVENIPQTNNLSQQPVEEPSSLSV

Common to all, as to experiment: co-IP; EPC cells co-transfected with tagged plasmids for 24 h; RIPA lysis buffer (1% NP-40, 50 mM Tris-HCl pH 7.5, 150 mM NaCl, 1 mM EDTA, 0.25% sodium deoxycholate); anti-Flag/HA/Myc affinity gel overnight at 4°C; three washes with lysis buffer; immunoblot; in Fig 7I cells first transfected with si-atg14#1 or si-NC; in Fig 7E MITA co-expressed
On the technique in general: A western blot detects proteins with antibodies after separation by electrophoresis.

For assay [1], the target named is T1, MITA-C (MITA truncation lacking the N-terminal/ER localization region, containing the C-terminal 222 amino acids) (zebrafish) (UniProt E7F4N7).
T1 sequence: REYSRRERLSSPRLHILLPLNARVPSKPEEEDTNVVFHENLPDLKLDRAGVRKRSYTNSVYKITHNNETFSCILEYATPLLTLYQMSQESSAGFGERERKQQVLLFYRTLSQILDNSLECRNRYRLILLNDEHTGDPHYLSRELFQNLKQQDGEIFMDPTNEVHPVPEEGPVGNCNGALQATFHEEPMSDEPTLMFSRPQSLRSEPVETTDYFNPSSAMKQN

The target of assay [2] is T2, wild-type MITA (construct of the anti-HA co-IP of Fig 4K) (zebrafish) (UniProt E7F4N7).
T2 sequence: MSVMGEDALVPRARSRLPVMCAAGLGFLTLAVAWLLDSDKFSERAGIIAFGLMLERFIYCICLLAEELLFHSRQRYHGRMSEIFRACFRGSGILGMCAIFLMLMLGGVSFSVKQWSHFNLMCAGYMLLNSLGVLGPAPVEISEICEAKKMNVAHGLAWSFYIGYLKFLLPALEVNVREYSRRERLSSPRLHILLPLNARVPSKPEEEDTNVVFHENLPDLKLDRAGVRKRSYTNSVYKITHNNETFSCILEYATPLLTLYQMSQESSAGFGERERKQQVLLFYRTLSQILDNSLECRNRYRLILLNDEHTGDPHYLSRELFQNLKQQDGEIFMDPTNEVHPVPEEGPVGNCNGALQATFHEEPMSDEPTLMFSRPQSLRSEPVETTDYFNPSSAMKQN

Assay [3] has as its target T3, MITA-Myc (zebrafish mediator of IRF3 activation) (zebrafish) (UniProt E7F4N7).
T3 sequence: T2 sequence

Results are given in words; binding and its absence hold for the method and conditions named. In cells and extracts the contact can be indirect. Some results given as binding are weak or reduced against the parent protein; the word gives no strength. For part of these data: Where a sequence is shown, tags or fusion partners need not be part of it.

With “Cyp19a1a (construct of the anti-HA co-IP of Fig 4K) (from UniProt O42145 1-509)”, the binding entry in assay [1] was “no binding”; in assay [2] it was “binds”.

As to “Cyp19a1a-Flag (zebrafish cytochrome P450, family 19, subfamily A, polypeptide 1a) (from UniProt O42145 1-509)”, the binding entry in assay [3] is recorded as “binds”.
